Data reported in the supplement of paper PMC8728848.
The other results are listed elsewhere or left out.

Experiments:
Experiment in all cases: glycan array binding signal (z-score within array); higher = stronger binding
Settings in all cases: glycan notation: IUPAC condensed, linker removed
[1] = target: Gal(a1-3)GalNAc
Outline: (§1)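 The Consortium for Functional Glycomics database supplied 3228 glycan arrays, of which those lacking an available protein sequence were dropped. The binding signal, a within-array Z-score, was averaged across arrays of the same protein sequence and across linkers. Negative scores can be read as non-binding.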

[2] = target: Gal(a1-3)[Gal(a1-4)]Gal(b1-4)GlcNAc
Outline: as §1

[3] = target: Gal(a1-4)Gal(b1-3)GlcNAc(b1-2)Man(a1-3)[Gal(a1-4)Gal(b1-3)GlcNAc(b1-2)Man(a1-6)]Man(b1-4)GlcNAc(b1-4)GlcNAc
Outline: as §1

[4] = target: Gal(a1-4)Gal(b1-4)Glc
Outline: as §1

[5] = target: Gal(a1-4)Gal(b1-4)GlcNAc
Outline: as §1

[6] = target: Gal(a1-4)Gal(b1-4)GlcNAc(b1-2)Man(a1-3)[Gal(a1-4)Gal(b1-4)GlcNAc(b1-2)Man(a1-6)]Man(b1-4)GlcNAc(b1-4)GlcNAc
Outline: as §1

[7] = target: Gal(a1-4)Gal(b1-4)GlcNAc(b1-3)Gal(b1-4)Glc
Outline: as §1

[8] = target: Gal(a1-4)GlcNAc
Outline: as §1

[9] = target: Gal(a1-6)Glc
Outline: as §1

[10] = target: Gal(b1-2)Gal
Outline: as §1

[11] = target: Gal(b1-3)Gal
Outline: as §1

[12] = target: Gal(b1-3)Gal(b1-4)GlcNAc
Outline: as §1

[13] = target: Gal(b1-3)Gal(b1-4)GlcNAc(b1-2)Man(a1-3)[Gal(b1-3)Gal(b1-4)GlcNAc(b1-2)Man(a1-6)]Man(b1-4)GlcNAc(b1-4)GlcNAc
Outline: as §1

[14] = target: Gal(b1-3)GalNAc
Outline: as §1

[15] = target: Gal(b1-3)GalNAc(a1-3)[Fuc(a1-2)]Gal(b1-4)Glc
Outline: as §1

[16] = target: Gal(b1-3)GalNAc(a1-3)[Fuc(a1-2)]Gal(b1-4)GlcNAc
Outline: as §1

[17] = target: Gal(b1-3)GalNAc(b1-3)Gal(a1-4)Gal(b1-4)Glc
Outline: as §1

[18] = target: Gal(b1-3)GalNAc(b1-4)Gal(b1-4)Glc
Outline: as §1

[19] = target: Gal(b1-3)GalNAc(b1-4)[Neu5Ac(a2-3)]Gal(b1-4)Glc
Outline: as §1

[20] = target: Gal(b1-3)GlcNAc
Outline: as §1

[21] = target: Gal(b1-3)GlcNAc(a1-6)Gal(b1-4)GlcNAc
Outline: as §1

[22] = target: Gal(b1-3)GlcNAc(b1-2)Man(a1-3)[Gal(b1-3)GlcNAc(b1-2)Man(a1-6)]Man(b1-4)GlcNAc(b1-4)GlcNAc
Outline: as §1

[23] = target: Gal(b1-3)GlcNAc(b1-2)Man(a1-3)[Gal(b1-3)GlcNAc(b1-2)Man(a1-6)]Man(b1-4)GlcNAc(b1-4)[Fuc(a1-6)]GlcNAc
Outline: as §1

[24] = target: Gal(b1-3)GlcNAc(b1-3)Gal(b1-3)GlcNAc
Outline: as §1

[25] = target: Gal(b1-3)GlcNAc(b1-3)Gal(b1-4)Glc
Outline: as §1

[26] = target: Gal(b1-3)GlcNAc(b1-3)Gal(b1-4)GlcNAc
Outline: as §1

[27] = target: Gal(b1-3)GlcNAc(b1-3)Gal(b1-4)GlcNAc(b1-6)[Gal(b1-3)GlcNAc(b1-3)]Gal(b1-4)Glc
Outline: as §1

[28] = target: Gal(b1-3)GlcNAc(b1-3)Gal(b1-4)[Fuc(a1-3)]GlcNAc(b1-6)[Gal(b1-3)GlcNAc(b1-3)]Gal(b1-4)Glc
Outline: as §1

[29] = target: Gal(b1-3)GlcNAc(b1-3)GalNAc
Outline: as §1

[30] = target: Gal(b1-3)GlcNAc(b1-6)Gal(b1-4)GlcNAc
Outline: as §1

[31] = target: Gal(b1-3)[Fuc(a1-4)]GlcNAc
Outline: as §1

[32] = target: Gal(b1-3)[Fuc(a1-4)]GlcNAc(b1-2)Man(a1-3)[Gal(b1-3)[Fuc(a1-4)]GlcNAc(b1-2)Man(a1-6)]Man(b1-4)GlcNAc(b1-4)GlcNAc
Outline: as §1

[33] = target: Gal(b1-3)[Fuc(a1-4)]GlcNAc(b1-2)Man(a1-3)[Gal(b1-3)[Fuc(a1-4)]GlcNAc(b1-2)Man(a1-6)]Man(b1-4)GlcNAc(b1-4)[Fuc(a1-6)]GlcNAc
Outline: as §1

[34] = target: Gal(b1-3)[Fuc(a1-4)]GlcNAc(b1-3)Gal(b1-3)[Fuc(a1-4)]GlcNAc
Outline: as §1

[35] = target: Gal(b1-3)[Fuc(a1-4)]GlcNAc(b1-3)Gal(b1-4)GlcNAc
Outline: as §1

[36] = target: Gal(b1-3)[Fuc(a1-4)]GlcNAc(b1-3)Gal(b1-4)[Fuc(a1-3)]GlcNAc
Outline: as §1

[37] = target: Gal(b1-3)[GlcNAc(b1-6)]GalNAc
Outline: as §1

B1: PEB3 (Campylobacter jejuni), Q0PBL7 (protein)
chain: MKKIITLFGACALAFSMANADVNLYGPGGPHTALKDIANKYSEKTGVKVNVNFGPQATWFEKAKKDADILFGASDQSALAIASDFGKDFNVSKIKPLYFREAIILTQKGNPLKIKGLKDLANKKVRIVVPEGAGKSNTSGTGVWEDMIGRTQDIKTIQNFRNNIVAFVPNSGSARKLFAQDQADAWITWIDWSKSNPDIGTAVAIEKDLVVYRTFNVIAKEGASKETQDFIAYLSSKEAKEIFKKYGWRE
[1]
  glycan array binding signal (z-score): 0.696
[2]
  glycan array binding signal (z-score): -0.605
[3]
  glycan array binding signal (z-score): 1.73
[4]
  glycan array binding signal (z-score): -0.347
[5]
  glycan array binding signal (z-score): -0.621
[6]
  glycan array binding signal (z-score): 1.86
[7]
  glycan array binding signal (z-score): -0.433
[8]
  glycan array binding signal (z-score): 0.1
[9]
  glycan array binding signal (z-score): -0.482
[10]
  glycan array binding signal (z-score): -0.787
[11]
  glycan array binding signal (z-score): -1.46
[12]
  glycan array binding signal (z-score): -1.14
[13]
  glycan array binding signal (z-score): -0.139
[14]
  glycan array binding signal (z-score): 0.026
[15]
  glycan array binding signal (z-score): -0.242
[16]
  glycan array binding signal (z-score): 0.186
[17]
  glycan array binding signal (z-score): 0.116
[18]
  glycan array binding signal (z-score): -0.495
[19]
  glycan array binding signal (z-score): 0.437
[20]
  glycan array binding signal (z-score): -0.448
[21]
  glycan array binding signal (z-score): -0.42
[22]
  glycan array binding signal (z-score): 0.056
[23]
  glycan array binding signal (z-score): 0.471
[24]
  glycan array binding signal (z-score): -0.637
[25]
  glycan array binding signal (z-score): 0.239
[26]
  glycan array binding signal (z-score): -1.33
[27]
  glycan array binding signal (z-score): -0.921
[28]
  glycan array binding signal (z-score): 0.098
[29]
  glycan array binding signal (z-score): -0.449
[30]
  glycan array binding signal (z-score): -0.898
[31]
  glycan array binding signal (z-score): -0.192
[32]
  glycan array binding signal (z-score): 1.83
[33]
  glycan array binding signal (z-score): 1.72
[34]
  glycan array binding signal (z-score): 0.879
[35]
  glycan array binding signal (z-score): -0.218
[36]
  glycan array binding signal (z-score): -0.524
[37]
  glycan array binding signal (z-score): -0.504
